## Percent effect of library compounds

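Assay of Toxoplasma gondii numbers, read through their beta-galactosidase reporter with a colour substrate. Tested at 50 µM. Higher reads as fewer parasites (inferred from which compounds were picked for retests). Size under these conditions: about 18,000 compounds, about 170 of them at 50% or above in at least one test.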

Results are given as percent effect.
The controls that fix the scale are not given in the record; negative values are as filed.
This is an unselected part of the compounds tested.

compound,effect
NC(c1ccccc1)C1(CO)CC=CC1 (centres unmarked),3.101
CCN(CC)C(=O)[C@@H]1C[C@@H](N)CN1C(=O)COC,-1.135
O=C1CNC(=O)C2(CC2)N1,-5.951
C[C@@H](N)C(=O)N(Cc1ccccc1F)C1CCC1,9.881
Cc1cnn(CCNCCCS(C)(=O)=O)c1,5.311
CCC(=O)Nc1ccc2c(c1)CCC(=O)N2CCOC,20.04
OCCNCc1ccc(F)cc1C(F)(F)F,1.616
Cc1cc(NC(=O)C(C)OC(=O)c2ccccn2)no1 (centres unmarked),-0.9597
COCc1cccc(C(=O)NC(CO)c2ccsc2)c1 (centres unmarked),-18.92
C=C(C)CN1CCN(CC(=C)C)C(C(=O)N(C)C)C1 (centres unmarked),-0.683
CN(CCO)c1ccc(N)nc1,1.007
COC(=O)c1cc(Cn2cc(F)ccc2=O)oc1C,1.711
COc1ccc(CN(C)CCNS(C)(=O)=O)c(Cl)c1,-6.441
N#Cc1ccc(NCC(=O)N2CCOCC2)cc1,-13.57
CNC(=O)CSCC(=O)NC(C)(C)C,-2.299
Cc1c[nH]c2ccccc2c1=N,-3.951
CNc1cc(CN(C)Cc2cccs2)ccn1,-3.271
COCCC(C)NC(=O)Nc1ccc(C#N)cc1 (centres unmarked),0.5951
O=C(COC(=O)C1=COCCO1)Nc1ccc(I)cc1,-1.304
O=C(Nc1ccc2cn[nH]c2c1)N[C@@H]1CNCC[C@H]1O,-5.939
CC(C)(C)CN(CCC#N)CC(=O)N1CCNC1=O,-6.071
CC1C(=O)NCCN1CC(=O)N1CCCCC1 (centres unmarked),-1.679
O=C1CCNc2ncccc21,5.74
CCNC(=O)CCS(=O)(=O)c1cccc(Cl)c1,6.126
CC(CN1CCOCC1)NC(=O)Nc1nccs1 (centres unmarked),-4.994
N#Cc1ccc(OCCN)cc1,24.15
O=C(C1CCCC1)N1CCC(NC2CCOCC2)C1 (centres unmarked),-3.489
O=C(C1CC=CC1)N(CCCO)Cc1ccccn1,-7.621
OCCCSc1ccncc1NCc1cccc(O)c1,-2.232
CC(=O)c1cc(C(=O)NCc2cnc(C)cn2)cs1,-3.855
NCC(CO)Cc1cccnc1 (centres unmarked),-17.16
NCc1cc(N[C@H](CO)CC2CCCCC2)ncn1,-25.15
CNCCCNS(C)(=O)=O,5.152
CNC(C)CCNC(=O)c1cc(C)nn1C (centres unmarked),-4.64
CCOC(=O)C(CC)(CC)CO,9.287
CC(CC(C)(C)O)NCCSc1cnn[nH]1 (centres unmarked),-0.4936
CCOc1ccc2c(c1)C(=O)NC2=O,-4.32
C[C@H]1CN(C(=O)C(C)(C)C)CCN1S(C)(=O)=O,11.26
CS(=O)(=O)N1CCC(C(=O)N2CCCC2)CC1,7.758
Cc1cccc(NC(=O)N(C)CCS(C)(=O)=O)c1Cl,19.02
CCSc1cc(Cl)ccc1C(=O)N[C@H](C)C(=O)NC,-1.472
NC(=O)Cn1c(C2CC2)nc2ccccc21,4.027
COC(=O)Cc1cccc(NC(=O)c2ccoc2C)n1,-2.629
CCc1nc(CNC)cs1,-7.339
CCN(CCO)S(=O)(=O)Cc1ccccc1Cl,23.22
COC(=O)CN1C(=O)CCc2ccccc21,-4.498
CC(=O)Nc1cccc(N2CCN(CC3CC3)CC2)c1,4.713
CC(CN)N(C)Cc1ccccc1 (centres unmarked),16.94
CCn1cc(C(=O)Nc2n[nH]c(C3CCC3)n2)cn1,4.262
O=C(c1cc(Cl)ccc1O)N1CCOCC1,6.297
Cn1ccc(NC(=O)CN2CCC[C@@H]2C(N)=O)n1,-0.8035
NC(=O)CN1CCCC1c1ccccc1 (centres unmarked),-2.909
NC(Cc1ccccc1)C(=O)N1Cc2ccccc2C1 (centres unmarked),7.679
O=C(NCc1ccoc1)NCC(O)c1cccc(F)c1 (centres unmarked),-18.48
CC(C)=CCC1(CO)CCCN(CCC(N)=O)C1 (centres unmarked),4.013
CCCOc1ccc(CN)cc1,-6.104
CCO[C@H]1CN(Cc2ccc(CC)cn2)C[C@@H]1O,2.897
CCn1c(SCC(=O)NC)nc2ccccc2c1=O,-19.44
CN(C)C(=O)CC1CCNCC1,-8.816
CC(O)CN1CCN(C(=O)CN(C)C2CC2)CC1 (centres unmarked),3.925
CNCCC(=O)NC1CC1,-10.39
CCOCCN(c1ccccc1F)S(C)(=O)=O,-10.78
CC1(C2CC2)CNCCO1 (centres unmarked),-11.77
Cc1cccnc1CSc1nnnn1CC1CCCO1 (centres unmarked),-5.751
CC(Cc1ccco1)NC(=O)NCC(C)(C)C(N)=O (centres unmarked),-6.483
Nc1cnccc1CO,-18.52
COC(=O)C(C)OC(=O)c1cccnc1SC (centres unmarked),4.665
CCCNC(=O)c1cnn(C)c1-n1cccc1,-26.24
CN1CN(C(=O)c2ccccc2)CC1=O,-1.57
CNC(=O)c1ccccc1S(=O)(=O)CCOC,3.179
CCCn1nnnc1CN1CCN(CC)CC1,-8.148
Cc1cc(C(=O)O)cc(N2C[C@H](C3CC3)[C@@H](N)C2)n1,8.371
COC1(CN)CCC(C(F)F)CC1 (centres unmarked),13.12
O=C(NCc1ccncc1)c1ncsc1C(F)(F)F,-13.81
Nc1nnc(CCCNC(=O)c2cn[nH]c2)s1,17.37
COc1ccnc(CN2CCCC2CSC)c1OC (centres unmarked),5.305
COc1cccc(Cl)c1Cn1cc(Cl)c(=O)[nH]c1=O,-5.906
CC1C(=O)NCCN1C(=O)c1ccc(F)c(C#N)c1 (centres unmarked),-4.53
Cc1nc2cc(F)ccc2cc1C(=O)N(C)C,7.034
CC(C)NC(=O)CCN1CCC(CN2CCCC2)CC1,15.46
CS(=O)(=O)N1CC(CO)C1,6.192
Cc1cc(C(=O)Nc2ccc(C(N)=O)cc2)no1,-11.39
CCn1cc(C2CCNCC2)cn1,0.3426
Cn1cc(NC(=O)c2ccc(O)nc2)cc(Br)c1=O,0.433
Cc1cc(C(=O)NN2CCOCC2)c(C)o1,-47.81
NCCC1COc2ccccc2O1 (centres unmarked),1.961
COCCOc1cccc(F)c1C(C)O (centres unmarked),-11.99
CCn1cc(NC(=O)NC2CC(=O)N(C3CC3)C2)cn1 (centres unmarked),-2.862
CC1CN(C(=O)c2ccc(Cl)o2)CC(C)(C)O1 (centres unmarked),-2.364
N#Cc1ccc(OC2CCNC2)nc1 (centres unmarked),-12.23
CCOc1ncccc1OCCO,6.742
COc1ccnc(CN(C)CC2CCOCC2)c1OC,-7.521
CNC(=O)CNC(=O)c1cc2ccccc2cc1OC,-7.995
OCCCNCCO,-3.054

The last 6 entries again:

{"compound": "CC1CN(C(=O)c2ccc(Cl)o2)CC(C)(C)O1", "stereo": "centres unmarked", "effect": -2.364}
{"compound": "N#Cc1ccc(OC2CCNC2)nc1", "stereo": "centres unmarked", "effect": -12.23}
{"compound": "CCOc1ncccc1OCCO", "effect": 6.742}
{"compound": "COc1ccnc(CN(C)CC2CCOCC2)c1OC", "effect": -7.521}
{"compound": "CNC(=O)CNC(=O)c1cc2ccccc2cc1OC", "effect": -7.995}
{"compound": "OCCCNCCO", "effect": -3.054}

Source: ChEMBL document CHEMBL3988442, “University of Dundee, Small-Polar-MMV Screening Library” (2021).